In assay [1] the target is Keratin 19 (K19), endogenous in MDA-MB-231 cells (human (endogenous in MDA-MB-231)) (UniProt P08727). Briefly: co-IP; endogenous proteins; anti-K19 IP in Triton lysis buffer (1% Triton X-100, 40 mM HEPES pH 7.5, 120 mM sodium chloride, 1 mM EDTA) with 2% empigen, Protein G Sepharose, IgG control, immunoblot. On the technique in general: A western blot detects proteins with antibodies after separation by electrophoresis.

Sequences of proteins named here, by UniProt entry; tags and fusion partners are left off.
UniProt P08727: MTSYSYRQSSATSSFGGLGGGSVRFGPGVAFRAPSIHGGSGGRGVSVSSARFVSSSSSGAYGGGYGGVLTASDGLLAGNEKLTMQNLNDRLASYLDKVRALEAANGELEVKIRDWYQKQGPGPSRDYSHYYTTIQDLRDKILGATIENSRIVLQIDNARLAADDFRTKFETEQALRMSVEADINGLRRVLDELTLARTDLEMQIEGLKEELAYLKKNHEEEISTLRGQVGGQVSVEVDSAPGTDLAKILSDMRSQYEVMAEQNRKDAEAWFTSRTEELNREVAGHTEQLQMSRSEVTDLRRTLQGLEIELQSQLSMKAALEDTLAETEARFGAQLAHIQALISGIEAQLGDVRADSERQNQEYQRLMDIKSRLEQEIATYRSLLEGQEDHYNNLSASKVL

The target is the same in assay [2]. The experiment in a line: proximity ligation; Duolink in situ PLA with K19 and HNRNPK antibodies on fixed MDA-MB-231 parental cells, permeabilized with 0.01% digitonin (Fig. 1A) or with triton (Fig. S1B); KRT19 KO cells as control.
Assay [3] addresses Heterogeneous nuclear ribonucleoprotein K (HNRNPK), endogenous in MDA-MB-231 cells (human (endogenous in MDA-MB-231)) (UniProt P61978). Briefly: co-IP; endogenous proteins; anti-HNRNPK IP in NP-40 lysis buffer (0.25% NP-40, 50 mM Tris pH 8.0, 100 mM sodium chloride), Protein G Sepharose, IgG control, immunoblot.
Assay [4] has as its target preassembled K8/K19 filaments (UniProt P08727). The experiment in a line: co-sedimentation; high-speed in vitro co-sedimentation; recombinant HNRNPK incubated with or without preassembled K8/K19 filaments; supernatant and pellet immunoblotted; both purified.
Assay [5] addresses GFP-tagged K19 (UniProt P08727). The experiment in a line: co-IP; HEK293 cells transiently expressing GFP or GFP-K19; immunoblot for HNRNPK.

Results are given in words; binding and its absence hold for the method and conditions named. For some assays here: In cells and extracts the contact can be indirect. Some results given as binding are weak or reduced against the parent protein; the word gives no strength.

Turning to “Heterogeneous nuclear ribonucleoprotein K (HNRNPK), endogenous in MDA-MB-231 cells (from UniProt P61978 1-463)”, the binding entry in assay [1] and in assay [2] was “binds” in each case.
Consider “Keratin 19 (K19), endogenous in MDA-MB-231 cells (from UniProt P08727 1-400)”, for which, in assay [3], the binding entry is recorded as “binds”.
With “recombinant HNRNPK (from UniProt P61978 1-463)”, in assay [4], the binding result is on record as “binds”.
As to “HNRNPK in HEK293 cells (from UniProt P61978 1-463)”, the binding result in assay [5] is on record as “binds”.
